According to paper PMC5097169:
No constants are given. Whether binding was seen depends on the method and setting. For part of these data: In cells and extracts the contact can be indirect. Some results given as binding are weak or reduced against the parent protein; the word gives no strength. One block for each substance: values may come before it.

Chains of the proteins cited; added tags and fusions are not shown. Lines headed by an entry give the natural chain unless they say otherwise; changes in a name come on top. Residues count along the entry.
UniProt Q9W7I5: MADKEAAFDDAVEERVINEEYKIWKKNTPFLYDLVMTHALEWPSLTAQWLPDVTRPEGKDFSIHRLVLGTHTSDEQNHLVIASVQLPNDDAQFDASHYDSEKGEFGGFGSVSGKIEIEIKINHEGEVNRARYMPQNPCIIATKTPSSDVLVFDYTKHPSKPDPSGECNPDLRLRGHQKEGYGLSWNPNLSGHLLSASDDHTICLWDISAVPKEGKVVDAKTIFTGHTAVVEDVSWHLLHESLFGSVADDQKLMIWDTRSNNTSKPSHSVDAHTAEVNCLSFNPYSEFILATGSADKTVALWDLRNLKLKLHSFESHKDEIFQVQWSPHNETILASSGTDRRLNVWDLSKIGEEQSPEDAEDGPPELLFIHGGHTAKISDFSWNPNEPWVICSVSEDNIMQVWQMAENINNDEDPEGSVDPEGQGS
UniProt Q569M3, residues 1-50: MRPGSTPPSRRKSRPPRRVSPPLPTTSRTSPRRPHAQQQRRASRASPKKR
UniProt Q6XXM1: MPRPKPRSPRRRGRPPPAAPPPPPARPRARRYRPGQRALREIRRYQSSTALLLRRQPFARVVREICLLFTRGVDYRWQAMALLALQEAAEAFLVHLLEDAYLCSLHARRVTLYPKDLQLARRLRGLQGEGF
UniProt O93377: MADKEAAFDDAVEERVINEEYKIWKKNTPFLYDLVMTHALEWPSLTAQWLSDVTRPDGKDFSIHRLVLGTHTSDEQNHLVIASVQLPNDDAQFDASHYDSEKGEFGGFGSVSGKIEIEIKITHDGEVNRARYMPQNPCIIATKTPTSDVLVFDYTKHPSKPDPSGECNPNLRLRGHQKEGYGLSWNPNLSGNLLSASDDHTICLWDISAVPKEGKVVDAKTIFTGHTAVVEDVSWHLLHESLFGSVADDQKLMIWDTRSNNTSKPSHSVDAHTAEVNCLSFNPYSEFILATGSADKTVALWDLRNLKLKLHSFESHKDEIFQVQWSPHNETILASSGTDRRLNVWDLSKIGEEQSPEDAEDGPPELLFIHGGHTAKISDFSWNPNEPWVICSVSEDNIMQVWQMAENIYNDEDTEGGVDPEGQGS
UniProt Q8AVH1: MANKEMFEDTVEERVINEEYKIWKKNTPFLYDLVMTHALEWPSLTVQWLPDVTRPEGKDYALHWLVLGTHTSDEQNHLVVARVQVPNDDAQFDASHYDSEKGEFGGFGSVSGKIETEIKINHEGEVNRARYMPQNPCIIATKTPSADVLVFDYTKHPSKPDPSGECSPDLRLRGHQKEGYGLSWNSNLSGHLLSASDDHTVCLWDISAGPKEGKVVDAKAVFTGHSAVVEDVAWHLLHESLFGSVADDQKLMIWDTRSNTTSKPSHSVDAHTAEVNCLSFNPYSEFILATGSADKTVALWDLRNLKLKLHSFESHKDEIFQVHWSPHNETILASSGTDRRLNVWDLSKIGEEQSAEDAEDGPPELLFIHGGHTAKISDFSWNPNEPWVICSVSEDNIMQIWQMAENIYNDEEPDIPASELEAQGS

Columns and labels:
[1] = target: FLAG fused wild-type RbAp48 (chicken) (UniProt Q9W7I5); test: co-IP; IP with anti-FLAG antibody in RbAp48 OFF DT40 cells expressing FLAG fused wild-type or Y32H RbAp48; western blot with anti-CENP-A
[2] = target: FLAG fused Y32H mutant RbAp48 (chicken) (UniProt Q9W7I5); test: as above
HA-RbAp48 (chicken) = HA-RbAp48 (chicken) (UniProt Q9W7I5); test: co-IP; IP with anti-HA or anti-HJURP antibodies in DT40 cells expressing HA-RbAp48; western blot with anti-HJURP, anti-HA, anti-CENP-A, anti-H3 and anti-H4
[3] = target: GST fusion to Xenopus laevis CENP-A amino terminus (amino acids 1–50) (Xenopus laevis) (UniProt Q569M3); test: pull-down; GST-histone tails coupled to NHS Sepharose (20 μl resin) with 0.7 μg Hat1, RbAp46 or RbAp48, or RbAp46 with Hat1, in 150 μl 20 mM K-HEPES pH 7.4, 50 mM KCl, 0.1% Tween-20, 5 mM DTT; 2 h at 4 °C; washes with 300 mM KCl; coomassie-stained gel; both purified
[4] = target: GST fusion to Xenopus laevis CENP-A amino terminus (amino acids 1–50) (Xenopus laevis) (UniProt Q569M3); test: pull-down; affinity chromatography: GST-tail fusions coupled to Affigel-10; clarified mitotic Xenopus egg extract, pre-passed over immobilised GST, in 50 mM HEPES pH 7.7, 100 mM KCl; elution with 100 mM steps of KCl; only the target purified

binding [1]: binds
binding [2]: binds
binding (HA-RbAp48 (chicken)): binds
Substance: CENP-A (chicken, endogenous in DT40 cells) (from UniProt Q6XXM1 1-131)

binding [3]: binds
Substance: Flag RbAp48 (Xenopus, recombinant) (from UniProt O93377 1-425)

binding [4]: binds
Substance: Xenopus RbAp46 (endogenous in egg extract) (from UniProt Q8AVH1 1-425)

binding [4]: binds
Substance: Xenopus RbAp48 (endogenous in egg extract) (from UniProt O93377 1-425)
